Test results: PubChem BioAssay AID651640 (Broad Institute, 2012)
Among all 350,000 compounds or so, about 6,000 (1.7%) were called active. Inconclusive means that the source gave no clear call. Such entries were picked first, then a sample of the others. Cut-off read from the data, not from the text of the source: active = CPE inhibition above about 20% (passing the limit was not always enough); inconclusive = no clear call, values can overlap the other calls; tested in BHK-21 cells.

Assay: protection of cells from dengue 2 killing – plate reader, single concentration, primary screen (AID 651640);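 note: 0% = median of neutral control wells and 100% = median of positive control wells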
Details: DENV2-infected cells, cytopathic effect rescue, at 9.99 µM, hits give high values

| Structure (SMILES) | CPE inhibition |
| --- | --- |
| COc1ccc2c3c(n(C)c2c1)[C@H](CO)N(CC1CC1)CC31CN(C(=O)c2cccc(F)c2)C1 | inconclusive: 31.8% |
| CC(C)(C)C(=O)NC(=S)N1CCOCC1 | inconclusive: 28.2% |
| COc1ccc(-c2ccc(C3[C@@H]4CN(C(=O)c5cnccn5)C[C@H]3N4)cc2)cc1 (some centres undefined) | inconclusive: 30.7% |
| CCNC(=O)C[C@@H]1CC[C@H]2[C@@H](COc3ccc(NC(=O)Cc4ccccc4)cc3C(=O)N2C)O1 | inconclusive: 27% |
| CCC(=O)Nc1ccc2c(c1)C(=O)N(C)[C@@H]1CC[C@H](CC(=O)N[C@@H](C)c3ccccc3)O[C@@H]1CO2 | active: 139% |
| CCN1CCN(C(=O)N[C@@H](C(=O)N[C@@H]2C(=O)N3C(C(=O)O)=C(CSc4nnnn4C)CS[C@H]23)c2ccc(O)cc2)C(=O)C1=O | inconclusive: 61.1% |
| Cc1cc(C)c2nc(-c3ccccc3)ccc2c1 | inconclusive: 50.7% |
| CCCC#Cc1cnc2c(c1)C(=O)N([C@H](C)CO)C[C@H](C)[C@H](CN(C)C(=O)C1CCOCC1)O2 | inactive: 5.15% |
| Cc1ccc(Cl)c(Nc2ccccc2C(=O)O)c1Cl | inconclusive: 24% |
| Cc1ccc(OCCC(=O)N(CC(=O)Nc2ccccc2C(F)(F)F)Cc2ccco2)cc1 | inconclusive: 21.8% |
| COc1ccccc1CN1C(=O)[C@@H]2Cc3c([nH]c4ccccc34)C(C)(C)N2C1=O | inconclusive: 61.7% |
| CCOc1ccc(/C=N/NC(=O)c2ccncc2)cc1OC | inconclusive: 44.5% |
| CN1C(=O)c2cc(NC(=O)c3ccc(F)cc3)ccc2OC[C@H]2O[C@H](CC(=O)NCC3CC3)CC[C@@H]21 | inactive: -9.39% |
| CCOC(=O)C1=C(C)N(CCCCCC(=O)O)C(=O)NC1c1ccccc1OC(=O)c1cccs1 (centres undefined) | active: 47.4% |
| COC(=O)[C@@H]1[C@@H](CO)[C@@H]2Cn3c(ccc(-c4ccccc4F)c3=O)[C@@H]2N1C(=O)c1ccccn1 | inactive: 9.37% |
| CON(C)S(=O)(=O)c1cccc(C(=O)Nc2cccc(S(=O)(=O)NC3=NCCCCC3)c2)c1 | inconclusive: 32.7% |
| Cc1cc(Sc2nc(N(C)C)nc(N(C)C)n2)nc(Cl)n1 | inconclusive: 55.2% |
| C[C@H](CO)N1C[C@H](C)[C@@H](CN(C)C(=O)Nc2ccccc2F)Oc2cc(Br)ccc2S1(=O)=O | inconclusive: 39.3% |
| CCc1nc2nc(C)c(NS(=O)(=O)c3ccc(Br)s3)c(=O)n2[nH]1 | active: 43.9% |
| CN(CC(=O)N1CCc2ccccc2C1)S(=O)(=O)c1ccc2c(c1)c(=O)n(C)c(=O)n2C | inactive: 11.4% |
| COC(=O)Cn1nnc(N2CCOCC2)n1 | inconclusive: 27.3% |
| C[C@@H]1CN([C@@H](C)CO)C(=O)c2cc(C#C[C@@H](C)O)cnc2O[C@@H]1CN(C)C(=O)Cc1ccncc1 | inactive: 7.22% |
| COc1ccc(S(=O)(=O)N2CCN(C(=O)C3CC(=O)N(c4ccccc4F)C3)CC2)cc1OC (centres undefined) | inactive: 3.01% |
| COc1ccc(C(=S)N2CCOCC2)cc1OC(=O)c1ccccc1 | active: 23.7% |
| Clc1ccc(-n2nnc(-c3cccnc3Cl)n2)cn1 | inconclusive: 29.8% |

| Structure (SMILES) | CPE inhibition |
| --- | --- |
| COc1ccc(N(CC(=O)N2CCN(c3ccccc3)CC2)S(=O)(=O)c2ccccc2)cc1 | inconclusive: 46.3% |
| COc1cccc(Oc2ccc(OC)cc2C(=O)O)c1 | inconclusive: 21.3% |
| COc1ccc([Si](C)(C)[C@@H]2[C@@H](CCO)O[C@]3(C(=O)N(Cc4cccc(N5CCCCC5=O)c4)c4ccccc43)[C@H]2C)cc1 | inactive: 3.86% |
| C/C=C/c1cnc2c(c1)C(=O)N([C@H](C)CO)C[C@H](C)[C@H](CN(C)S(=O)(=O)c1cn(C)cn1)O2 | inconclusive: 54.1% |
| CC(=O)/C(C#N)=C1\NC(=O)C(Cc2ccccc2C)S1 (centres undefined) | inconclusive: 28.9% |
| COC1=CC(=O)OC(c2cccc([N+](=O)[O-])c2)C1 (centres undefined) | active: 41.2% |
| CC(C)NC(=O)Nc1ccc2c(c1)C(=O)N([C@H](C)CO)C[C@H](C)[C@H](CN(C)Cc1ccc3c(c1)OCO3)O2 | inconclusive: 50.5% |
| COc1cccc(S(=O)(=O)N2C[C@@H](O)COC[C@H]3O[C@H](CC(=O)N4CCN(C)CC4)CC[C@@H]32)c1 | active: 20.3% |
| O=C(NCc1cccnc1)C(=O)NCC(c1ccco1)N1CCOCC1 (centres undefined) | inactive: -2.86% |
| COc1ccc2c3c([nH]c2c1)[C@@H](CO)N(C)CC31CN(C(=O)c2ccccn2)C1 | inactive: -6.49% |
| CN(C)C(=O)c1cccc(-c2cnc3c(NC=O)cc(-c4cccc(F)c4)cn23)c1 | inconclusive: 30.7% |
| O=C(C[C@H]1C=C[C@H](NC(=O)Nc2ccc3c(c2)OCO3)[C@@H](CO)O1)NCc1ccc(Cl)cc1 | inconclusive: 26.2% |
| O=C(N[C@@H]1CC[C@@H](CCNS(=O)(=O)c2ccc(Cl)cc2)O[C@@H]1CO)c1ccccn1 | inconclusive: 34.8% |
| Cc1ccc(N/N=C(\C#N)C(=N)N2CCCCC2)cc1 | inactive: 4.76% |
| CCNC(=O)C[C@H]1C=C[C@@H](NC(=O)C2CCC2)[C@H](CO)O1 | inactive: 6.51% |
| CN(c1ccc(OCCOc2ccccc2Cl)cc1)S(=O)(=O)c1ccccc1 | inconclusive: 43.2% |
| CCO[C@@H]1OC(C(=O)Nc2ccccc2)=C[C@H](c2csc3ccccc23)[C@H]1CCCO | inconclusive: 23.3% |
| CNC(=O)C[C@@H]1CC[C@@H]2[C@H](COc3ccc(NC(=O)C4CC4)cc3C(=O)N2C)O1 | inactive: -5.87% |
| O=C(C[C@H]1CC[C@@H]2[C@H](COC[C@@H](O)CN2C(=O)c2ccccc2F)O1)NCc1ccc(F)cc1 | active: 37.8% |
| N#C[C@@H]1[C@H](c2ccc(-c3ccccc3F)cc2)[C@H](CO)N1C(=O)c1ccccn1 | inactive: 0.189% |
| CCNC(=O)C[C@@H]1CC[C@H]2[C@H](COc3ccc(NC(=O)Nc4cccc(C)c4)cc3C(=O)N2C)O1 | inconclusive: 21.2% |
| CCCC#Cc1ccc2c(c1)O[C@@H](CN(C)C(=O)CC1CC1)[C@H](C)CN([C@H](C)CO)S2(=O)=O | inactive: -2.12% |
| COc1ccc(C2/C(=C(/O)c3ccc(S(=O)(=O)N4CCOCC4)cc3)C(=O)C(=O)N2CCN2CCOCC2)cc1 (centres undefined) | inactive: -2.65% |
| C(=C\c1ccc(C2[C@H]3CNC[C@@H]2N3CC2CCOCC2)cc1)/c1ccccc1 (some centres undefined) | inconclusive: 34.7% |
| Cc1ccc(S(=O)(=O)N(C)C[C@@H]2OCCCC[C@H](C)Oc3ccc(NS(=O)(=O)c4ccc(Cl)cc4)cc3C(=O)N([C@H](C)CO)C[C@@H]2C)cc1 | inactive: 1.68% |

| Structure (SMILES) | CPE inhibition |
| --- | --- |
| C[C@H](CO)N1C[C@H](C)[C@@H](CN(C)C(=O)C2CC2)Oc2cc(C#Cc3ccccc3)ccc2S1(=O)=O | active: 174% |
| CCOC(=O)c1c(S(=O)(=O)N2CCCC(C(=O)Nc3ncccc3C)C2)c(C)n(C)c1C (centres undefined) | inconclusive: 31.4% |
| CCN(CCCNc1cc2c(c(N)c1S(=O)(=O)O)C(=O)c1ccccc1C2=O)c1ccccc1 | inconclusive: 21.6% |
| O=C(C[C@@H]1C[C@H]2c3cc(NC(=O)CC4CC4)ccc3O[C@H]2[C@@H](CO)O1)NCc1ccccc1F | inconclusive: 21.6% |
| C[C@@H]1CN([C@@H](C)CO)C(=O)c2cc(NC(=O)c3ccccc3)ccc2O[C@@H](C)CCCCO[C@@H]1CN(C)Cc1ccncc1 | inconclusive: 92.8% |
| CCn1c(-c2cc(-c3ccc(C)cc3)nc3ccccc23)n[nH]c1=S | inconclusive: 33.1% |
| Cc1ccnc(NC(=O)CN2C(=O)NC(C)(c3ccc4ccccc4c3)C2=O)c1 (centres undefined) | inconclusive: 25.3% |
| O=[N+]([O-])c1nccn1CC(O)CO (centres undefined) | inconclusive: 20.6% |
| COc1ccc(Cl)cc1-c1cc(C(=O)NCc2cccs2)[nH]n1 | inconclusive: 28.2% |
| C[C@H]1CCCCO[C@H](CN(C)Cc2ccc3c(c2)OCO3)[C@@H](C)CN([C@@H](C)CO)C(=O)c2cc(NC(=O)Nc3ccc4c(c3)OCO4)ccc2O1 | inactive: -23.4% |
| COc1ccc(OC)c(S(=O)(=O)N2CCN(c3ccccc3OC)CC2)c1 | inconclusive: 44.3% |
| NC(=O)C(Cc1ccccc1)N1C(=O)c2ccccc2C1=O (centres undefined) | inconclusive: 45.1% |
| Cc1cc(=O)[nH]c(-c2cccnc2)n1 | inconclusive: 22.2% |
| COc1ccc(-c2noc(N3CCC(C(=O)NCCCN4CCC(C)CC4)CC3)n2)cc1 | inconclusive: 37.2% |
| O=C(Nc1ccc2c(c1)OCCO2)C1C(c2ccccc2)=Nc2ccccc2N1C(=O)c1cccnc1 (centres undefined) | inactive: 2.04% |
| CO/N=C/C(C#N)=C/c1ccc(OC)cc1 | inconclusive: 36.7% |
| Cc1noc(C)c1NC(=O)N(C)C[C@@H]1OCCCC[C@H](C)Oc2ccc(NC(=O)Nc3ccc(F)cc3)cc2C(=O)N([C@@H](C)CO)C[C@@H]1C | inconclusive: 33.8% |
| CCCCOC(=O)CCN1C(=O)/C(=C2\SC(=S)N(CCC(=O)OCCCC)C2=O)SC1=S | active: 75% |
| Oc1nc(Nc2cccc(Cl)c2)sc1/C=C1\C=Nc2ccccc21 | inconclusive: 65.2% |
| O=C(N/N=C/c1ccccn1)C(=O)N1CCCCCC1 | inactive: 1.47% |
| COc1ccc(C(=O)NCC(=O)N/N=C/c2cccnc2)cc1OC | inactive: -2.09% |
| Cc1ccc(OCc2cc(C(=O)N3CCc4[nH]cnc4C3c3ccccn3)no2)cc1C (centres undefined) | inconclusive: 30.7% |
| CCC(=O)N1CCc2nc(-c3ccccc3)sc2C1 | inconclusive: 32.6% |
| C[C@@H]1CCCCO[C@H](CN(C)C(=O)Nc2cccc3ccccc23)[C@H](C)CN([C@@H](C)CO)C(=O)c2cc(NS(C)(=O)=O)ccc2O1 | inactive: -0.342% |

Random excerpt: three entries already listed

| Structure (SMILES) | CPE inhibition |
| --- | --- |
| O=C(N/N=C/c1ccccn1)C(=O)N1CCCCCC1 | inactive: 1.47% |
| COc1ccc2c3c(n(C)c2c1)[C@H](CO)N(CC1CC1)CC31CN(C(=O)c2cccc(F)c2)C1 | inconclusive: 31.8% |
| COc1ccc(-c2noc(N3CCC(C(=O)NCCCN4CCC(C)CC4)CC3)n2)cc1 | inconclusive: 37.2% |
